Literature values as cited in paper PMC2997942 (Molecular pharmaceutics, 2010).

Target: OCTN2
Details: Mouse enterocyte; cited from earlier work

In the case of `CN(C)CCOC(c1ccccc1)c1ccccc1` [Diphenhydramine], the “Ki or IC50” value is listed as “Not inhibitor”.
